This is an account of results in article PMC7380067.

The series concerns the target T1, MBP-AgrR (Cupriavidus metallidurans NA4) (UniProt Q1LMJ6).
T1 sequence (looked up): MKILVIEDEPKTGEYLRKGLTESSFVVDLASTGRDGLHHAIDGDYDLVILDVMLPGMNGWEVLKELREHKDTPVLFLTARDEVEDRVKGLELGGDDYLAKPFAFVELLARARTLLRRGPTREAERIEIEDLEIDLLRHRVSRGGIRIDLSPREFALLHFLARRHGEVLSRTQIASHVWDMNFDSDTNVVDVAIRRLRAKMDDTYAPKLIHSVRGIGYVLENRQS
In words: EMSA. Conditions: 5.85 uM protein; 25 mM Na2HPO4, 150 mM NaCl, 0.1 mM EDTA, 2 mM MgCl2, 1 mM DTT, 10% glycerol, pH 7.0, 22 C, about 0.1 nM probe, 25 ug/ml sonicated salmon sperm DNA; recombinant protein; residues 1-224; protein details: N-terminal MBP (pMAL-c2X); label: 5'-32P single end; probe letters rebuilt from the primers and the …. On the technique in general: In EMSA bound probe runs differently from free probe, usually more slowly.

For at least one entry, the source does not settle the construct or the ends of the probe. Weaker means in comparison with the reference protein, sequence or condition of that experiment. Where a protein sequence is shown, tags need not be part of it.

“GTTTTCATCCTCAGCTGCACGGGCTCACAGCTCAAACGATGCCGCCGATGATAACGGCGCAGGTTCGCCTATTGGATGACAAGACTGTAATCGTTTCGTCCCCGTTTGAAAGGGTGTTGCGTACATAGAATCGCCGCTAATTCTGGATGACCGGCGCCGACAGCGCCTGGAGTGAACCATGTGGATTGTGC (double strand) [agrR control region]”: the binding result is “binds more weakly”.
